Reference: patent EP1382615A1
Results are given in words; binding and its absence hold for the method and conditions named. Some entries that bind do so weakly or less than the wild type.

Sequences of proteins named here, by UniProt entry; tags and fusion partners are left off. Residues count along the entry.
UniProt P43121, residues 24-646: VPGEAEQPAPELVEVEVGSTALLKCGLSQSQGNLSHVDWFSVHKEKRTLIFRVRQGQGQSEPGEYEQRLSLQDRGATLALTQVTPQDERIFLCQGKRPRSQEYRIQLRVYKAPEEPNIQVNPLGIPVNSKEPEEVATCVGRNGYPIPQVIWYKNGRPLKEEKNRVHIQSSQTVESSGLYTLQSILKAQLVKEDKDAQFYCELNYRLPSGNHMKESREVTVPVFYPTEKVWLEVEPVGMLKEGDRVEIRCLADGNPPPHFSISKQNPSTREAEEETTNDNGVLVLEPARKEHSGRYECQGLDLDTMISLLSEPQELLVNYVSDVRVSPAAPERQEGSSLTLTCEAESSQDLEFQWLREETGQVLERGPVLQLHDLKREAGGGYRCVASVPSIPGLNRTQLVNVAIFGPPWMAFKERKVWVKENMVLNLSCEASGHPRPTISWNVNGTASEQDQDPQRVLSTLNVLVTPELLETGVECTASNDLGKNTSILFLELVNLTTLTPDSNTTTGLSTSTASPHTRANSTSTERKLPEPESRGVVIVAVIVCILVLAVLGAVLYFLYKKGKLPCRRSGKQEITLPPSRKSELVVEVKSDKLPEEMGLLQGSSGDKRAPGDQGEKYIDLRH

Tests used:
[1] = molecular target: MCAM (cell surface glycoprotein MUC18 precursor) (human) (UniProt P43121); test: FACS on HT1080 cells vs Hs-27 control cells, 10 ug/ml scFv, FITC anti-E-tag detection
[2] = molecular target: MCAM (cell surface glycoprotein MUC18 precursor) (human) (UniProt P43121); test: Immunoprecipitation from HT1080 cell lysate on Streptactin Sepharose, SDS-PAGE, silver stain; band identified as MUC18/MCAM by MALDI-TOF (Example 10)

B1: scFv 6 (scFv)
scFv: EVQLLESGGGLVQPGGSLRLSCAASGFTFSSYAMSWVRQAPGKGLEWVSAISGSGGSTYYVDSVKGRFTISRDNSKNTLYLQMNSLRAEDTAVYYCARDIWGVTTAFDYWGQGTTVTVSSGGGGSGGGGSGGGGSALSSELTQDPAVSVALGQTVRITCQGDSLRSYYASWYQQKPGQAPVLVIYGKNKRPSGIPDRFSGSTSGDTASLSITGALADDEADYYCHSRDSSGDQILFGGGTKLTVLGAAAGAPVPYPDPLEPRGAASAWSHPQFEK
For B1, the binding [1] was “binds” and the binding [2] was “binds”.
